According to PubChem BioAssay AID624297 (National Center for Advancing Translational Sciences (NCATS), 2012):
Screen size: about 340,000 compounds; about 6,200 (1.8%) were called active. The inconclusive results got no clear call from the source; some entries with a clear call stand among them for comparison. Calls come from the whole dose curve; as a rule, active = well fitted activation curve with a large enough effect; inconclusive = small, poorly fitted or top-dose-only effect; inactive = no such curve, though single readings can be large or run the other way. Potencies of inconclusive entries are doubtful fits and often do not repeat.

Assay: A quantitative high throughput screen for small molecules that induce DNA re-replication in SW480 colon adenocarcinoma cells. For re-replication activation: % of control where 0% means no effect. Note: nearly all actives have a fitted effect of over 55% in size.
Details: Hoechst DNA content imaging, 48 h; re-replication activation: at 46.1 µM (top of the series) unless noted
Outline: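 Treated cells incubate 48 hr (37 C, 5% CO2), are stained 40 min with Hoechst, and nuclear fluorescence is enumerated; a rise in nuclei with high DNA signal marks re-replication.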
Potency is the fitted concentration of half-maximal effect.

Row | Compound | Potency | re-replication activation
1 | COc1ccc(C(=O)N/C(=C\c2cn(C)c3ccccc23)C(=O)OCC(C)C)cc1 | inconclusive: 14.6 µM [activator, partial curve, poor fit] | –
2 | COc1ccccc1NC(=O)Cc1noc(CSc2nnc(C)n2C)n1 | inactive | –
3 | O=C(C1=C(O)C(=O)N(CC2CCCO2)C1c1cccc(Cl)c1)c1ccco1 (centres undefined) | inconclusive: 23.1 µM [activator, partial curve, poor fit] | –
4 | COc1ccc(C2c3c(ncn(CCN4CCOCC4)c3=N)Oc3ccc4ccccc4c32)cc1OC (centres undefined) | inconclusive: 23.1 µM [activator, single point] | –
5 | Cc1ccc(S(=O)(=O)N(CCCN(C)C)Cc2ccc3c(c2)OCO3)cc1 | inconclusive: 6.51 µM [activator, single point] | –
6 | Cc1cc(Br)cc(C)c1OCCCCN(C)C | inconclusive: 25.9 µM [activator, single point] | –
7 | COc1ccc(CC(=O)n2nc(-c3ccc(Cl)cc3)nc2NCc2ccco2)cc1 | inconclusive: 29.1 µM [activator, single point] | –
8 | Cc1ccc(S(=O)(=O)Nc2cc(C)cc(CCNC=O)c2C)cc1 | inactive | –
9 | CCN(CC)c1ccc(NC(=O)CSC(=O)c2ccccc2)cc1 | inconclusive: 18.4 µM [activator, single point] | –
10 | COC(=O)/C=C/c1ccsc1NC(C)=O | active: 9.2 µM | –
11 | O=CNCCCc1nc2ccccc2n1CCc1ccccc1 | inactive | –
12 | Cc1ccc(C(=O)Nc2cccc(O)c2)cc1S(=O)(=O)N1CCCCCC1 | inconclusive: 1.84 µM [activator, partial curve, poor fit] | –
13 | COc1ccc(CNc2ccc3c(c2)nc(C)n3C)cc1 | inconclusive: 29.1 µM [activator, partial curve, poor fit] | –
14 | Cc1cc2cc(C(c3nnnn3Cc3ccco3)N3CCc4ccccc43)c(=O)[nH]c2cc1C (centres undefined) | inconclusive: 18.4 µM [activator, partial curve, poor fit] | –
15 | CC(C(=O)NN)c1ccc([N+](=O)[O-])cc1 (centres undefined) | inconclusive: 0.0731 µM [activator, full curve, poor fit] | –
16 | O=C(NCC(c1ccco1)N1CCCCC1)c1ccc(COc2ccc(Cl)cc2)cc1 (centres undefined) | inconclusive: 29.1 µM [activator, partial curve, poor fit] | –
17 | COc1ccc(S(=O)(=O)N2CCC(C(=O)N3CCN(C)CC3)CC2)cc1OC | inactive | –
18 | Cc1cc(=O)n2cccc(O)c2n1 | inconclusive: 32.6 µM [activator, partial curve, poor fit] | –
19 | C=C(C)COc1ccc(-c2[nH]ncc2-c2ccc(OC)cc2)c(O)c1 | inactive | –
20 | COc1ccc(CCNC(=O)C2CCN(Cc3nc(-c4ccccc4F)oc3C)CC2)cc1OC | inactive | –
21 | CN(C)S(=O)(=O)c1ccc(Cl)c(NC(=O)CN2C(=O)NC(C)(C3CC3)C2=O)c1 (centres undefined) | inconclusive: 20.6 µM [activator, single point] | –
22 | Oc1[nH]c2ccccc2c1N=NC(=S)NCCc1ccccc1 | inconclusive: 14.6 µM [activator, partial curve, poor fit] | –
23 | CC(C)NC(=O)Cn1c(SCC(=O)N2c3ccccc3CC2C)nc2ccccc21 (centres undefined) | inactive | –

Row | Compound | Potency | re-replication activation
24 | Cn1c(CC(=O)Nc2ccccc2Cl)nnc1SCC(=O)NC1CCCCC1 | inconclusive: 0.708 µM [activator, partial curve, poor fit] | –
25 | CCCN(CCC)Cc1c(C(=O)N/N=C/c2ccco2)nnn1-c1nonc1N | inactive | –
26 | CC12CCC(C(=O)CC1=O)C2(C)C (centres undefined) | inactive | –
27 | CC(=O)Nc1ccc(C(O)(C(F)(F)F)C(F)(F)F)cc1 | inconclusive: 16.4 µM [activator, single point] | –
28 | O=C(c1nc2ccccn2c1CN1CCCC(OCc2ccccc2)C1)N1CCCC1 (centres undefined) | inactive | –
29 | N#C/C(C(=O)Nc1ccc(Cl)cc1)=C(/S)Nc1ccccc1 | inconclusive: 29.1 µM [activator, single point] | –
30 | CC(Nc1nc(-c2ccncc2)nc2ccccc12)c1ccccc1 (centres undefined) | inconclusive: 29.1 µM [activator, single point] | –
31 | CCC1Nc2ncnc(N3CCOCC3)c2N(Cc2ccc(Br)cc2)C1=O (centres undefined) | inactive | –
32 | O=C(O)CCCN1C(=O)/C(=C\C(Cl)=C\c2ccccc2)SC1=S | active: 3.26 µM | –
33 | COc1ccc(C(=O)Oc2c(CN3CCOCC3)cc(Cl)c3cccnc23)cc1 | inconclusive: 29.1 µM [activator, single point] | –
34 | O=C(Nn1cc(C(=O)N2CCN(c3ccccc3F)CC2)c2ccccc2c1=O)c1cnccn1 | inconclusive: 11.2 µM [activator, partial curve] | –
35 | CSc1nnc(NC(=O)c2nc(S(=O)(=O)Cc3ccccc3F)ncc2Cl)s1 | inconclusive: 2.59 µM [activator, single point] | –
36 | Cc1c(Cc2ccccc2)c(=O)oc2cc(O)ccc12 | inconclusive: 4.11 µM [activator, full curve] | –
37 | CC(C)(C)OC(=O)N1O[C@H]2C[C@@H]1[C@@H]1[C@@H]2N=NN1C12CC3CC(CC(C3)C1)C2 | active: 20.6 µM | –
38 | COc1ccc(N2CCN(C(CNC(=O)c3cccc(Cl)c3)c3cccnc3)CC2)cc1 (centres undefined) | inactive | –
39 | CCc1ccc(NC(=O)c2ccccc2SC)cc1 | inactive | –
40 | COCCCN1CN(Cc2ccco2)CNC1=S | inactive | –
41 | CN1CCN(NC(=S)NC2CCCC2)CC1 | inactive | –
42 | Cc1cc(OC(=O)c2ccccc2)c([N+](=O)[O-])c(=O)[nH]1 | inconclusive: 4.61 µM [activator, single point] | –
43 | CC1(C)CC(=O)C2=C(C1)OC(N)=C(C#N)C2C#Cc1ccccc1 (centres undefined) | inconclusive: 18.4 µM [activator, single point] | –
44 | COc1ccc(C(=O)N2CCc3[nH]nc(-c4ccccc4)c3C2)cc1 | inconclusive: 0.116 µM [activator, full curve, poor fit] | –
45 | CCN1CCN(C(=S)Nc2sc(C)c(-c3ccccc3)c2C(=O)OC)CC1 | inconclusive: 20.6 µM [activator, partial curve, poor fit] | –
46 | COC(=O)c1ccc(/C=N/Nc2nc(C)c(C)s2)cc1 | inconclusive: 2.91 µM [activator, full curve] | –

Row | Compound | Potency | re-replication activation
47 | COC(=O)CSc1nnc2n(C3CCCCC3)c(=O)c3c4c(sc3n12)CCCC4 | inconclusive: 16.4 µM [activator, single point] | –
48 | CCOc1ccc(NCc2cccn2-c2nnc(N3CCC(C(=O)NCCCN4CCCCC4C)CC3)s2)cc1 (centres undefined) | inconclusive: 23.1 µM [activator, single point] | –
49 | [N-]=[N+]=NC[C@H](c1ccccc1)N1CCN(Cc2ccccc2)CCC1=O | inconclusive: 0.058 µM [activator, full curve, poor fit] | –
50 | CCc1cccc2c(C(=O)CCl)c[nH]c12 | inconclusive: 16.4 µM [activator, single point] | –
51 | Nc1nc(Cl)nc2c1ncn2C1CC(O)C(CO)O1 (centres undefined) | inconclusive: 0.231 µM [activator, full curve] | –
52 | Cc1cc(C)c2[nH]c(=O)c(CN(Cc3ccccc3)C(=S)NCCCN(C)C)cc2c1 | inconclusive: 23.1 µM [activator, single point] | –
53 | CN1CCN(C2=Cc3cc(Cl)ccc3Sc3cc(F)ccc32)CC1 | inconclusive: 25.1 µM [activator, single point] | –
54 | O=C(N/N=C/c1cn(-c2ccccc2)nc1-c1cccnc1)c1ccccc1 | inconclusive: 29.1 µM [activator, single point] | –
55 | CC(NC(=O)c1ccc([N+](=O)[O-])o1)C1CC2CCC1C2 (centres undefined) | active: 10.3 µM | –
56 | Cc1cc(NCc2ccc3c(c2)OCO3)n2nc(C)nc2n1 | inactive | –
57 | CCOC(=O)C(O)C1CCc2c([nH]c3ccc(C)cc23)C1=O (centres undefined) | inconclusive: 29.1 µM [activator, partial curve, poor fit] | –
58 | Cc1ccc2c(O)c(Cc3ccccc3)c(=O)[nH]c2n1 | inconclusive: 0.116 µM [activator, single point] | –
59 | CC(C)(C)C(=O)N1CCN(C(=O)c2ccco2)CC1 | inconclusive: 29.1 µM [activator, single point] | –
60 | COc1cc(CN(C)Cc2nc3cc(C(F)(F)F)ccc3c(=O)[nH]2)ccc1OC(F)F | inconclusive: 29.1 µM [activator, single point] | –
61 | S=C(c1nc2ccccc2[nH]1)N1CCOCC1 | inactive | –
62 | Cc1ccc(CCNC(=O)C2CCN(S(=O)(=O)N3CCCC3)CC2)cc1 | inconclusive: 20.6 µM [activator, single point] | –
63 | CCC(c1nnnn1C1CCCCC1)N(Cc1ccco1)Cc1cc2ccc(OC)cc2[nH]c1=O (centres undefined) | inconclusive: 23.1 µM [activator, partial curve, poor fit] | –
64 | Cc1nc(Cc2nnc(SCC(=O)Nc3c(C)cccc3C)o2)cs1 | inconclusive: 8.2 µM [activator, partial curve, poor fit] | –
65 | CCC(CC)C(=O)Nc1cccc(/C(C)=N/NC(=O)c2ccccc2Cl)c1 | inconclusive: 29.1 µM [activator, single point] | –
66 | CCOC(=O)C1CCN(CCCSc2ccc(C)cc2)CC1 | – | inactive: 0.0004% [at 1.84 µM]
67 | O=C(O)c1ccc2cccnc2n1 | inconclusive: 4.61 µM [activator, partial curve, poor fit] | –
68 | O=c1cc(N2CCCCC2)c(-c2ccccc2)nn1Cc1cccc(Cl)c1 | inactive | –
69 | C=C1CCN(C(C)C(=O)O)S(=O)(=O)c2ccccc21 (centres undefined) | inconclusive: 5.17 µM [activator, partial curve, poor fit] | –

An excerpt from above in order of count of non-hydrogen atoms, falling.
Row | Compound | Potency | re-replication activation
48 | CCOc1ccc(NCc2cccn2-c2nnc(N3CCC(C(=O)NCCCN4CCCCC4C)CC3)s2)cc1 (centres undefined) | inconclusive: 23.1 µM [activator, single point] | –
4 | COc1ccc(C2c3c(ncn(CCN4CCOCC4)c3=N)Oc3ccc4ccccc4c32)cc1OC (centres undefined) | inconclusive: 23.1 µM [activator, single point] | –
34 | O=C(Nn1cc(C(=O)N2CCN(c3ccccc3F)CC2)c2ccccc2c1=O)c1cnccn1 | inconclusive: 11.2 µM [activator, partial curve] | –
16 | O=C(NCC(c1ccco1)N1CCCCC1)c1ccc(COc2ccc(Cl)cc2)cc1 (centres undefined) | inconclusive: 29.1 µM [activator, partial curve, poor fit] | –
23 | CC(C)NC(=O)Cn1c(SCC(=O)N2c3ccccc3CC2C)nc2ccccc21 (centres undefined) | inactive | –
33 | COc1ccc(C(=O)Oc2c(CN3CCOCC3)cc(Cl)c3cccnc23)cc1 | inconclusive: 29.1 µM [activator, single point] | –
21 | CN(C)S(=O)(=O)c1ccc(Cl)c(NC(=O)CN2C(=O)NC(C)(C3CC3)C2=O)c1 (centres undefined) | inconclusive: 20.6 µM [activator, single point] | –
68 | O=c1cc(N2CCCCC2)c(-c2ccccc2)nn1Cc1cccc(Cl)c1 | inactive | –
62 | Cc1ccc(CCNC(=O)C2CCN(S(=O)(=O)N3CCCC3)CC2)cc1 | inconclusive: 20.6 µM [activator, single point] | –
43 | CC1(C)CC(=O)C2=C(C1)OC(N)=C(C#N)C2C#Cc1ccccc1 (centres undefined) | inconclusive: 18.4 µM [activator, single point] | –
11 | O=CNCCCc1nc2ccccc2n1CCc1ccccc1 | inactive | –
29 | N#C/C(C(=O)Nc1ccc(Cl)cc1)=C(/S)Nc1ccccc1 | inconclusive: 29.1 µM [activator, single point] | –
36 | Cc1c(Cc2ccccc2)c(=O)oc2cc(O)ccc12 | inconclusive: 4.11 µM [activator, full curve] | –
39 | CCc1ccc(NC(=O)c2ccccc2SC)cc1 | inactive | –
6 | Cc1cc(Br)cc(C)c1OCCCCN(C)C | inconclusive: 25.9 µM [activator, single point] | –
67 | O=C(O)c1ccc2cccnc2n1 | inconclusive: 4.61 µM [activator, partial curve, poor fit] | –
